PubChem BioAssay AID504764 | Drosophila RNAi Screening Center | 2011
In all, the deposit lists about 22,000 reagents; below is a random part of those with a known target gene and a result. Over the whole deposit, 403 (1.9%) got an active call. 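Unnormalised raw counts per well; ratio z-scores behind the hit calls and whether each hit raises or lowers signal are not deposited.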 Entries without a mark were called inactive. A plus sign joins genes that one reagent is predicted to hit. No sequences are given here. Not given: the amount of reagent.

- Assay: 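Genes whose knock-down alters Notch-dependent transcription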 (primary screen)
- Cell system: Drosophila Kc167 cells
- Knock-down reagent: long dsRNA against Drosophila genes
- Duration: about 5 days (4 days dsRNA, then 24 h after transfection)
- Challenge: transfection of constitutively active membrane-tethered Notch lacking the extracellular domain, read 24 h later
- Measurement: 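Firefly luciferase from an E(spl)m3 reporter with active Notch, plus control-promoter and uninduced reporter wells for normalisation; unnormalised counts, duplicate wells a and b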
- Reading the numbers: induced reporter light, run 1, well a and induced reporter light, run 1, well b: higher = more light from the Notch target reporter with active Notch; control promoter light, run 1, well a and control promoter light, run 1, well b: higher = more light from the viral control promoter (cell number, transfection, viability); uninduced reporter light, run 1, well a: higher = more light from the Notch target reporter without active Notch
- Hit rule: 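Wells with low control signal or poorly matching duplicates excluded; duplicates averaged; per source plate, z beyond ±2 for induced/control log2 ratio or beyond ±1.8 for induced/uninduced marks a hit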
- Calls: active = modifier hit (raised or lowered Notch signal); inactive = not a hit

target	DRSC id	induced reporter light, run 1, well a	induced reporter light, run 1, well b	control promoter light, run 1, well a	control promoter light, run 1, well b	uninduced reporter light, run 1, well a
Got1 (Glutamate oxaloacetate transaminase 1)	DRSC07177	1.18e5	1.28e5	2.36e5	2.76e5	8270
nompB (no mechanoreceptor potential B)	DRSC03701	44375	41980	53735	37340	2300
nompB (no mechanoreceptor potential B)	DRSC03731	48715	47320	49880	71305	2540
GstZ2 (Glutathione S transferase Z2)	DRSC16479	1.59e5	1.42e5	87710	79405	11335
CG18731	DRSC15377	1.19e5	1.21e5	1.54e5	1.70e5	11690
CG34434	DRSC18134	1.64e5	1.88e5	3.47e5	3.06e5	15025
CG8671	DRSC03102	70690	38020	44970	50260	2780
CG8671	DRSC03103	1.03e5	60735	67810	86120	4585
CG17028	DRSC10239	1.76e5	1.41e5	1.90e5	1.61e5	10042
CG9498	DRSC03235	2.19e5	2.12e5	1.95e5	2.05e5	11742
Ir40a (Ionotropic receptor 40a)	DRSC03732	39690	52905	40570	52965	3140
Ir40a (Ionotropic receptor 40a)	DRSC03733	58825	54565	36580	49320	2490
CG5151	DRSC10487	37065	53690	33265	41185	4910
EMC2B (ER membrane protein complex subunit 2B)	DRSC15506	1.88e5	1.96e5	2.07e5	2.02e5	15905
NHP2	DRSC11229	1.44e5	1.48e5	2.77e5	2.23e5	10405
CG42562	DRSC06453	90215	89430	1.10e5	1.38e5	7935

The list goes on; the last 2 above are carried over.
target	DRSC id	induced reporter light, run 1, well a	induced reporter light, run 1, well b	control promoter light, run 1, well a	control promoter light, run 1, well b	uninduced reporter light, run 1, well a
NHP2	DRSC11229	1.44e5	1.48e5	2.77e5	2.23e5	10405
CG42562	DRSC06453	90215	89430	1.10e5	1.38e5	7935
cv-d (crossveinless d)	DRSC16522	2.60e5 (active)	2.36e5	4.16e5	4.74e5	15238
cv-d (crossveinless d)	DRSC16524	1.85e5	1.86e5	1.81e5	1.71e5	12880
cv-d (crossveinless d)	DRSC16526	1.79e5	2.12e5	1.84e5	1.58e5	14460
Cog7 (Component of oligomeric golgi complex 7)	DRSC16331	1.16e5	1.36e5	1.55e5	1.61e5	10935
CG13690	DRSC00359	1.46e5	1.35e5	1.16e5	79165	10395
CG4951	DRSC15682	44445	39940	43230	51455	4255
CG17660	DRSC00513	2.15e5	2.25e5	2.21e5	2.20e5	17220
COX6AL2 + Ir75d	DRSC10081	1.29e5	87980	1.28e5	1.03e5	9050
Hasp (Hig-anchoring scaffold protein)	DRSC02022	1.65e5	1.72e5	1.53e5	1.35e5	12075
NC2alpha (Negative Cofactor 2alpha)	DRSC04059	1.75e5	1.69e5	1.59e5	1.61e5	10530
Ctr1B + Poxm	DRSC16245	1.08e5	1.21e5	87410	63260	7035
CG10252	DRSC14221	1.28e5	1.25e5	2.01e5	1.66e5	13810
Spn100A (Serpin 100A)	DRSC14596	1.65e5	1.50e5	2.36e5	2.26e5	11550
cv-c (crossveinless c)	DRSC14969	2.75e5	2.87e5	2.14e5	2.53e5	20175
cv-c (crossveinless c)	DRSC14970	2.35e5	2.41e5	2.05e5	2.23e5	18960
cv-c (crossveinless c)	DRSC14971	41265	41975	25470	24710	9110
cv-c (crossveinless c)	DRSC14972	2.59e5	1.86e5	2.28e5	2.08e5	17305
cv-c (crossveinless c)	DRSC14973	93490	1.06e5	65985	73550	9625
cv-c (crossveinless c)	DRSC16428	3.87e5	3.50e5	3.15e5	2.95e5	28370
Oamb (Octopamine receptor in mushroom bodies)	DRSC13433	59565	55745	85700	63535	8745
Oamb (Octopamine receptor in mushroom bodies)	DRSC15120	1.49e5	1.38e5	1.84e5	1.54e5	11165
Oamb (Octopamine receptor in mushroom bodies)	DRSC16763	1.67e5	1.47e5	1.85e5	1.91e5	10630
CG9945	DRSC07347	1.93e5	1.55e5	1.83e5	1.68e5	13355
Arl6 (ADP ribosylation factor-like 6)	DRSC07031	1.06e5	96065	92550	87580	7515
CG34174	DRSC00101	1.39e5	1.14e5	1.92e5	2.11e5	11110
CG13791 (retired record)	DRSC02295	1.61e5	1.44e5	1.86e5	2.05e5	9800
CG5569	DRSC04514	1.86e5	1.63e5	1.94e5	1.91e5	13215
Mtap (Methylthioadenosine phosphorylase)	DRSC06890	77840	87855	1.15e5	1.31e5	7775
CG5515	DRSC15825	1.69e5	1.80e5	2.24e5	2.01e5	12200
pim (pimples)	DRSC03591	2.03e5	1.66e5	1.74e5	1.79e5	15550
robo1 (roundabout 1)	DRSC04712	1.34e5	1.31e5	1.40e5	1.38e5	10705
cbc (crowded by cid)	DRSC06957	2.43e5	2.94e5	2.57e5	2.75e5	18785
Set	DRSC16861	98235	1.05e5	82655	55960	8180
CG11029	DRSC02119	1.53e5	1.12e5	1.14e5	1.64e5	7285
